Drawing on publication PMC11808628, this text covers binding for two substances.

Protein sequences, listed by entry. Tags and fused reporters are not part of them.
UniProt Q9WTS5: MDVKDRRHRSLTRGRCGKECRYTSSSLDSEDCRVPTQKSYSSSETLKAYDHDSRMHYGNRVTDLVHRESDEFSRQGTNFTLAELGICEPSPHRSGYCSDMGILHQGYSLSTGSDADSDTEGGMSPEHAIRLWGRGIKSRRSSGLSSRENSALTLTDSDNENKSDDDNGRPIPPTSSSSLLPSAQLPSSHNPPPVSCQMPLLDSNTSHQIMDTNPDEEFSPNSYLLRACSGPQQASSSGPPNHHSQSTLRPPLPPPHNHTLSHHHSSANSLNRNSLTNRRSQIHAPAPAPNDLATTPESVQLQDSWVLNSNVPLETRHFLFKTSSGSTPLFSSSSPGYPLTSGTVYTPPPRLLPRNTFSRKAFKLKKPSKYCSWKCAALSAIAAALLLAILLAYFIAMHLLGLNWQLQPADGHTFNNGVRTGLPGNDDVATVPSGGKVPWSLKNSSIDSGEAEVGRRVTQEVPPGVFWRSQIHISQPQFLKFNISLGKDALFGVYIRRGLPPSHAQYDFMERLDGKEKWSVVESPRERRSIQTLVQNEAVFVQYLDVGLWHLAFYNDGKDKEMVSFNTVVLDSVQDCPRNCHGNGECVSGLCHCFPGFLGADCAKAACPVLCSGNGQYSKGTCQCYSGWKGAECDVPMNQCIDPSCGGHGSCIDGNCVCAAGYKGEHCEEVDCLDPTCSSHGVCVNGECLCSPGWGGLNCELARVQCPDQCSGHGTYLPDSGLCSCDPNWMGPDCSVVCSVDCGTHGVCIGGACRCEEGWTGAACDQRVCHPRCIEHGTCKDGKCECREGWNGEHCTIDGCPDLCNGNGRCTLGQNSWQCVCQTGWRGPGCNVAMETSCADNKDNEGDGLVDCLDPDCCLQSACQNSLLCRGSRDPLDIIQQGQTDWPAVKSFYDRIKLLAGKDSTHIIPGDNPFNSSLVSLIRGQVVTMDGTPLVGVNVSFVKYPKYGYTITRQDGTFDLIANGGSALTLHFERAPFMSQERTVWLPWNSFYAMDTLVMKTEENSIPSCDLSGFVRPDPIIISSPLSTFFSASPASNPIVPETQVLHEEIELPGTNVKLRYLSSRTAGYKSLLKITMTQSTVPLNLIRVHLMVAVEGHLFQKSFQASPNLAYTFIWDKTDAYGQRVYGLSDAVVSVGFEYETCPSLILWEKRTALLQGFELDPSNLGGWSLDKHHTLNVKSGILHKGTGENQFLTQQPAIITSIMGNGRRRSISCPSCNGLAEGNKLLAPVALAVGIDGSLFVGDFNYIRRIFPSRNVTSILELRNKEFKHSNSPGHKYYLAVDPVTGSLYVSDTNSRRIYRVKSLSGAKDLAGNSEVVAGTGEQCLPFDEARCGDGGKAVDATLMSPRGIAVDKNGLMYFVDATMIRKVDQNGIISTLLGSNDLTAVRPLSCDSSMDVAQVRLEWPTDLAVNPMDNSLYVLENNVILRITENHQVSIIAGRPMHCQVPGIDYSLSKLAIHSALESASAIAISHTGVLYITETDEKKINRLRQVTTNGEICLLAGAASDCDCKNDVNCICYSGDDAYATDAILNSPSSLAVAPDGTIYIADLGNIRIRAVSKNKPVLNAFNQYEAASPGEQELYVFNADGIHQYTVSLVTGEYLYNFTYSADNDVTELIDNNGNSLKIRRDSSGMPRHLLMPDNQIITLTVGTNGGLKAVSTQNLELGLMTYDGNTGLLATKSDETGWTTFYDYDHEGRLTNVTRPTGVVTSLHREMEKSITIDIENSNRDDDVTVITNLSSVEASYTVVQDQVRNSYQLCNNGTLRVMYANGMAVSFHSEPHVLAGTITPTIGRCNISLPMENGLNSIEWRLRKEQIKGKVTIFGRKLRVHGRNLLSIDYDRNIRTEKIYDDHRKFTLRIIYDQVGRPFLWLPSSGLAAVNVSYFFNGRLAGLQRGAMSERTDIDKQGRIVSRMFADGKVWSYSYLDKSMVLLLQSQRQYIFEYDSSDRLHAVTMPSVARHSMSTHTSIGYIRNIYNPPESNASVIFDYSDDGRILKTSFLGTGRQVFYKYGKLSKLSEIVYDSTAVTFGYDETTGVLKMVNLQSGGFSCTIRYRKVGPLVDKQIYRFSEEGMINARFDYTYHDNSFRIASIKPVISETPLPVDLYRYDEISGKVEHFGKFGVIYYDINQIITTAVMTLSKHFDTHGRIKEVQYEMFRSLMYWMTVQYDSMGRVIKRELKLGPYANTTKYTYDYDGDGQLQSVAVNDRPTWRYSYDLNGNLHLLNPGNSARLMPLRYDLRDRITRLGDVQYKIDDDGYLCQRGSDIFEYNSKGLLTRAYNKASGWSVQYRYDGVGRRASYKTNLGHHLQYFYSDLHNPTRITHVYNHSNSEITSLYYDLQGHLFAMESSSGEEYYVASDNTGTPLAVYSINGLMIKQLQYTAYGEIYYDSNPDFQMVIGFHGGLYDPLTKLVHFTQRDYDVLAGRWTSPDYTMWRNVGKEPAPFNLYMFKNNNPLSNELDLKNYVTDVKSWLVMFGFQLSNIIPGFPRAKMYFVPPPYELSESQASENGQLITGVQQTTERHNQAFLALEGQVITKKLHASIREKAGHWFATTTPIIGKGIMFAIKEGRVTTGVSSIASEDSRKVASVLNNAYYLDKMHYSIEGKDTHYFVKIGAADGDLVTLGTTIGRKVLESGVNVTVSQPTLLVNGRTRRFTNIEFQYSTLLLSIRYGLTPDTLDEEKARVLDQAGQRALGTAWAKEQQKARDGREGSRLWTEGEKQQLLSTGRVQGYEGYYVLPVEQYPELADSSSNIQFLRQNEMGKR
UniProt Q9JIR4: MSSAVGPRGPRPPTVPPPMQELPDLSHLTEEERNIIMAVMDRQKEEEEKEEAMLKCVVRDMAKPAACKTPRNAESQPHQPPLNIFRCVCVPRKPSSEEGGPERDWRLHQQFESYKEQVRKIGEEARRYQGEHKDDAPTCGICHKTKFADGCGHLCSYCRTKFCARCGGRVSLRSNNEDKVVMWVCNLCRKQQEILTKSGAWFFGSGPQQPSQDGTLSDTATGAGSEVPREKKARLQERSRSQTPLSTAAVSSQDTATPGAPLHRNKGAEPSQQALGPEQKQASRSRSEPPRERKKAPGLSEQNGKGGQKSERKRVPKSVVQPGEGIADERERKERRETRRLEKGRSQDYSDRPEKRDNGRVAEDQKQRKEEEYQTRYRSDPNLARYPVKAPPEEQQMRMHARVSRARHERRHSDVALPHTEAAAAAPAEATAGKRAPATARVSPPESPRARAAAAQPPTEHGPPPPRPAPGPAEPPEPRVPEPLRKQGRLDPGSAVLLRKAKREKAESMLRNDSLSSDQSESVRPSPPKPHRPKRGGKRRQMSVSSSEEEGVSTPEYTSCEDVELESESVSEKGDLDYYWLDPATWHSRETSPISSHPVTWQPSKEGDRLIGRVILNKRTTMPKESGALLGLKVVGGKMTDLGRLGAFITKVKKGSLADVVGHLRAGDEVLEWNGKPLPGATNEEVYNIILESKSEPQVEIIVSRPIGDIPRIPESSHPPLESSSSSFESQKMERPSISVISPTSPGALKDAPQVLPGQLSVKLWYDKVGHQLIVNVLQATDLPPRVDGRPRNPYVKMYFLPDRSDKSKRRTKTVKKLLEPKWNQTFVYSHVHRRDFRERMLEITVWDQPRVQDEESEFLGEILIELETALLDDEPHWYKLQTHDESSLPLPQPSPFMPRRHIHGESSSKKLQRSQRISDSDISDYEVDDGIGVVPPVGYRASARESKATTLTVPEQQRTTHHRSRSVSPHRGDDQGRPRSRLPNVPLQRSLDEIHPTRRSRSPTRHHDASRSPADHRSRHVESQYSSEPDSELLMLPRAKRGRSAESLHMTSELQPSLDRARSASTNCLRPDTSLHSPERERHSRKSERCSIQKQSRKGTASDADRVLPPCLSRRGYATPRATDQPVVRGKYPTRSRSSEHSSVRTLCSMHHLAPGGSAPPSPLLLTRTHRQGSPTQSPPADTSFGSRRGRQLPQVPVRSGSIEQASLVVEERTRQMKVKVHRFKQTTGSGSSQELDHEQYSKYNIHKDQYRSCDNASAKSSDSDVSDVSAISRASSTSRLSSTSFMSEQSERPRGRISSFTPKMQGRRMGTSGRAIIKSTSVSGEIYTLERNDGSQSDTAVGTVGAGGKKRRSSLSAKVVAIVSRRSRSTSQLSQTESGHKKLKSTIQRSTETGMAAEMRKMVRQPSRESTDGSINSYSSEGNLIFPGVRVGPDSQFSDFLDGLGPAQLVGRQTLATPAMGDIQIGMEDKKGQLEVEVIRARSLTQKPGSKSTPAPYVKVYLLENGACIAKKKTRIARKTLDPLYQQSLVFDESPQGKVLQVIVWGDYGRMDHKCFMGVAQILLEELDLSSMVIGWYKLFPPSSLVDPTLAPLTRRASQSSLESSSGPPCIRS

No constants are given. Whether binding was seen depends on the method and setting. Some entries that bind do so weakly or less than the wild type.

The target of one assay is HA-tagged Tenm3^WT (UniProt Q9WTS6). The assay can be described thus: membrane-recruitment assay (imaging of transfected cells); transfected HEK293/HEK293T cells co-expressing Flag-tagged RIM1 or RIM-BP2 constructs with HA-tagged teneurins; Flag and HA epitopes imaged.
Another assay addresses Teneurin-1 (UniProt Q9WTS4). The assay is described as above.
A further assay has as its target Teneurin-2 (UniProt Q9WTS5). Described as above.
The target in a further assay is Teneurin-4 (UniProt Q3UHK6). Described as above.
Assay [1] concerns the target RIM1 and RIM-BP2 active zone LLPS condensates (UniProt Q9JIR4). The assay can be described thus: imaging of recruitment into LLPS condensates; purified proteins; RIM1 and RIM-BP2 10 μM each (Fig. 2) or 20 μM each (Fig. 3), Tenm3 proteins 1 μM; iFluor-labelled proteins imaged; both purified.

Turning to “Flag-tagged RIM1 (from UniProt Q9JIR4 1-1615)”, the binding result in the assay with HA-tagged Tenm3^WT, with Teneurin-1, with Teneurin-2 and with Teneurin-4 was “binds” throughout.
In the case of “Tenm3 extracellular domains (ECD), purified (from UniProt Q9WTS6 332-2715) (domain or fragment)”, the binding entry in assay [1] is on record as “no binding (tested: 1 μM)”.
